Construct, isoform or probe ends are uncertain for at least one entry. Where cells or extracts were used, other partners may take part. Negatives hold for the conditions tested. Tags and fusion partners may be left off the protein sequences shown.
Target: T1, Glucocorticoid receptor (GR) (UniProt P06536)
T1 sequence (looked up, limits assumed): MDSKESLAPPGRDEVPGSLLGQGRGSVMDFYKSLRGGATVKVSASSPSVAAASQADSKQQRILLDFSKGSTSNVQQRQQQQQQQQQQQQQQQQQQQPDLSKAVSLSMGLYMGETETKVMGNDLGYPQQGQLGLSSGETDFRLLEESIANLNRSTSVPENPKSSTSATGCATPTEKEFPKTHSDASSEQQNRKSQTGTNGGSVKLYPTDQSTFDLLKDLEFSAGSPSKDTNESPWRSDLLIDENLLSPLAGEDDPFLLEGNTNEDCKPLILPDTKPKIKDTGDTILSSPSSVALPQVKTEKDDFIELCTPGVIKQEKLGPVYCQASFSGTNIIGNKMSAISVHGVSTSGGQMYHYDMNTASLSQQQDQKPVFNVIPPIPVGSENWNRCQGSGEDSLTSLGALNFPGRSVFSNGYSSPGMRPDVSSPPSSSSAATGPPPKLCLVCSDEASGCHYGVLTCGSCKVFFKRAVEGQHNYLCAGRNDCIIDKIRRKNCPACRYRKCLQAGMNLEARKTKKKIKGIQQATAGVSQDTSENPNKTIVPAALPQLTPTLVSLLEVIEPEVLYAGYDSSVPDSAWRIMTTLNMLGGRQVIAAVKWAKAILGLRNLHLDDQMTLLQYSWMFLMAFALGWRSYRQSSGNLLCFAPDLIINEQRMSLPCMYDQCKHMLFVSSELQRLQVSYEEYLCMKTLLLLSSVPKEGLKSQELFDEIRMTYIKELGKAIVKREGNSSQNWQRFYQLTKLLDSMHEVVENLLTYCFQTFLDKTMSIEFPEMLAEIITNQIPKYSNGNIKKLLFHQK
Assay: EMSA with immunoblot of the gel (anti-GR)
Settings: 5 mM MgCl2, 50 nM probe, 2.5 ug nuclear extract; 10 mM Tris pH 7.5, 50 mM NaCl, 1 mM DTT (binding buffer), plus 5 mM MgCl2, 2.5 mM DTT, 0.25% Tween 20, 0.2% NP-40, 50 ng sheared salmon sperm DNA; 20 min on ice; protein in an extract; label: 5'-biotin on sense and antisense strands

Row | Sequence | binding result
1 | CCTTCAGGCTTAACAGCACCATCCAGAT (double strand) [Mutated nGRE probe] | no binding
2 | CCTTCAGGCTTGACAGTGACCTCCAGAT (double strand) [WT nGRE probe (cGH intron 1)] | binds

Reference: publication PMC5133863
